Results as given in article doi:10.1101/2023.07.05.547753.

Amino acid sequences for entries named in this document (tags omitted).
UniProt O22130: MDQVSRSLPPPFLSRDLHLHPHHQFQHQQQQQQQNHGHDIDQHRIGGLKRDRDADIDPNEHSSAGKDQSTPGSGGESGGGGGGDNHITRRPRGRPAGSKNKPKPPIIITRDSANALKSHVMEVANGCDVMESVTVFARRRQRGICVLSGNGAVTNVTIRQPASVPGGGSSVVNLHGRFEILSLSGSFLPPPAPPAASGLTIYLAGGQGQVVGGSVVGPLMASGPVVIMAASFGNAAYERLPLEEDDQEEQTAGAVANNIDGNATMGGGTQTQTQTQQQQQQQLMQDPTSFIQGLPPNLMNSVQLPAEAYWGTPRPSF
UniProt Q9S7C9: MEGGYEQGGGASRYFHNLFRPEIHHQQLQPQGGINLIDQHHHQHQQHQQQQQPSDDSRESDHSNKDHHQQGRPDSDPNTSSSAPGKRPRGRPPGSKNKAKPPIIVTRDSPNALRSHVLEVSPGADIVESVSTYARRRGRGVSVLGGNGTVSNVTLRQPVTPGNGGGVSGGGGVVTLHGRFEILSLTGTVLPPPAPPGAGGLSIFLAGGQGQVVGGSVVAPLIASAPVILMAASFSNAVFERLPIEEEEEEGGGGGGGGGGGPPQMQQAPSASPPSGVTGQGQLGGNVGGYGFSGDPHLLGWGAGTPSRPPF
UniProt Q9C9K7: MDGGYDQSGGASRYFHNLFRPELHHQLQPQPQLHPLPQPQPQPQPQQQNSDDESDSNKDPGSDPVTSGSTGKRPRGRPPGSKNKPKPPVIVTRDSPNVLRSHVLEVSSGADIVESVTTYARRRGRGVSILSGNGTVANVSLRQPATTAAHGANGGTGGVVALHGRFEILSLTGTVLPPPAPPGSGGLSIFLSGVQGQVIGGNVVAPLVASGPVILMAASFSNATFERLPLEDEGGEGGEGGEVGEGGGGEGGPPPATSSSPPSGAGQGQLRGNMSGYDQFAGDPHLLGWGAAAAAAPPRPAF

B1: FRS12 (FAR1-RELATED SEQUENCE 12), endogenous (protein, UniProt Q3E7I5 1-788)
chain: MESVDTELTSFNNMVAKSSYPVRILHHNNGISEDEEGGSGVEPYVGLEFDTAEEAREFYNAYAARTGFKVRTGQLYRSRTDGTVSSRRFVCSKEGFQLNSRTGCTAFIRVQRRDTGKWVLDQIQKEHNHELGGEGSVEETTPRPSRAPAPTKLGVTVNPHRPKMKVVDESDRETRSCPGGFKRFKGGGGEGEVSDDHHQTQQAKAVTGTEPYAGLEFGSANEACQFYQAYAEVVGFRVRIGQLFRSKVDGSITSRRFVCSREGFQHPSRMGCGAYMRIKRQDSGGWIVDRLNKDHNHDLEPGKKNDAGMKKIPDDGTGGLDSVDLIELNDFGNNHIKKTRENRIGKEWYPLLLDYFQSRQTEDMGFFYAVELDVNNGSCMSIFWADSRARFACSQFGDSVVFDTSYRKGSYSVPFATIIGFNHHRQPVLLGCAMVADESKEAFLWLFQTWLRAMSGRRPRSIVADQDLPIQQALVQVFPGAHHRYSAWQIREKERENLIPFPSEFKYEYEKCIYQTQTIVEFDSVWSALINKYGLRDDVWLREIYEQRENWVPAYLRASFFAGIPINGTIEPFFGASLDALTPLREFISRYEQALEQRREEERKEDFNSYNLQPFLQTKEPVEEQCRRLYTLTVFRIFQNELVQSYNYLCLKTYEEGAISRFLVRKCGNESEKHAVTFSASNLNSSCSCQMFEHEGLLCRHILKVFNLLDIRELPSRYILHRWTKNAEFGFVRDMESGVSAQDLKALMVWSLREAASKYIEFGTSSLEKYKLAYEIMREGGKKLCWQR

These molecules were tested against AHL22 N-terminal GS^rhino tag fusion (Arabidopsis thaliana) (UniProt O22130) (assay: affinity purification with mass spectrometry).

binding, binds:
AHL27 (from UniProt Q9S7C9 1-311), AHL29 (from UniProt Q9C9K7 1-302), B1

These are yes or no findings as the source states them, for the method shown. In cells and extracts the contact can be indirect. Here binding means that the protein was enriched with, or labelled near, the bait; the list need not be complete.
